# According to patent publication US5846940A, “Corneal therapeutic agent” (Okamoto; Sinseiro, priority 1994, dated 1998):
# Not every detail of the peptide structures is certain; ends, links or a residue may be inferred.
# System: corneas of colored rabbit after excimer laser abrasion
# Experiment: accelerating activity for corneal wound healing after excimer laser treatment (histological observation of corneal slices)
# Type: in vivo
# Conditions: eye drop 100 μg/ml
# Method: The following tests were performed with respect to the accelerating activity for the corneal wound healing after excimer laser treatment.
# HP 1 and HP 2 were diluted with 1.2 ml of an oxyglutathion eye-perfusion/washing solution (trade name: BSS plus, manufactured by Santen Seiyaku) to obtain a diluted solution in a final concentration of 0.1 mg/ml. 1000 μg/ml of EGF was diluted with 1 ml of the oxyglutathion eye-perfusion/washing solution to obtain a diluted solution in a final concentration of 0.1 mg/ml. FN was diluted with 10 ml of the oxyglutathion eye-perfusion/washing solution to obtain a diluted solution in a final concentration of 0.1 mg/ml.
# A colored rabbit was used as a test animal. The following surgical operation was applied to the rabbit.
# An excimer laser was radiated to the corneas of both eyes of the rabbit under the condition of 180 mj/10 nsec (10 Hz) per pulse. By this radiation, the surface of central corneal parenchyma was cut off by abrasion in the form of a meniscus having a diameter of 4.5 mm (9.9 diopter) and a maximum center-depth of 70 μm. The excimer laser was radiated by using Omunimed (trade name) manufactured by Summit (U.S.A.).
# Each of the aforementioned samples was administered to both eyes twice a day. A single droplet (about 50 μl) was administrated once in the morning and the afternoon for 5 to 7 days.
# As Comparative examples, eye drops were prepared by dissolving the aforementioned samples in the oxyglutathion eye perfusion/washing solution in accordance with Table 2 and administered to both eyes of the rabbit.
# After completion of droplet administration, right and left eyes were taken out from the rabbit and fixed with a glutathion aldehyde/formalin fixing solution. After the fixation, each cornea including a laser irradiated portion and a non-irradiated portion were excised out. Then, paraffin blocks were prepared in accordance with a customary method and thin-film slices of 5 μm thick were prepared by means of a microtome. The obtained corneal slices were stained with H.E. (hematoxylin-eosin) and then subjected to special staining such as PAS or trichrome.
# [1] = single droplet twice a day for 5 to 7 days, optical microscope
smiles,measurement,setting,value
"CC[C@H](C)[C@H](NC(=O)[C@H](Cc1ccc(O)cc1)NC(=O)[C@@H]1CCCN1C(=O)[C@H](CCCNC(=N)N)NC(=O)[C@H](CCCNC(=N)N)NC(C)=O)C(=O)N[C@H](CO)CC(C)C [HP1, N-acetyl-Arg-Arg-Pro-Tyr-Ile-Leucinol]",overall corneal wound healing accelerating / corneal therapeutic effect (conclusion),after excimer laser treatment,confirmed to have an corneal wound healing accelerating effect
same,epithelium regeneration in the excimer-laser irradiated portion,[1],observed in the entire irradiated portion
same,inflammatory changes,[1],not observed
same,thickness of the regenerated epithelium,[1],nonuniform
same,vacuolation and fibroblast growth in the tunica propria / under the epithelium,[1],Vacuolation and fibroblast growth were observed
